Test results published in PubChem BioAssay AID1347076 (National Center for Advancing Translational Sciences (NCATS), 2019).
Among all 400,000 compounds or so, about 13,000 (3.2%) were called active. The inconclusive results got no clear call from the source; some entries with a clear call stand among them for comparison. Calls come from the whole dose curve; as a rule, active = well fitted cell-killing curve with a large enough effect; inconclusive = small, poorly fitted or top-dose-only effect, or effect the other way; inactive = flat fitted curve, though single readings scatter. Where the call is inconclusive, the potency comes from a doubtful curve fit.

Test: qHTS assay for MDR1-selective chemotherapeutics: Primary screen using the drug-selected MDR subline cells KB-V1; note: nearly all actives have a fitted effect of over 60% in size
Conditions: KB-V1 MDR cells viability, CellTiter-Glo, 72 h; activity change, negative = cytotoxicity: at 46.1 µM (top of the series)
Method in brief: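 Potencies derive from concentration-effect curves fitted to normalized luminescence (CellTiter-Glo) of KB-V1 cells treated for 72 h at 37 degrees C in phenol-red-free DMEM containing 10% FBS.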
% is set by controls: 0 for no effect and ±100 for the full control effect; potency is the fitted concentration of half-maximal effect.

Structure (SMILES)	Potency	activity change, negative = cytotoxicity
CCOC(=O)c1c(NC(=O)CN2CCOCC2)sc2c1CCCC2	inconclusive: 9.2 µM [cytotoxic, partial curve]	–
Cc1ccc(CN2CCNC(=O)C2CC(=O)N(C)CCc2cnn(C)c2)cc1 (stereo not given)	inconclusive: 7.31 µM [rising, partial curve]	–
O=C(NCc1cccs1)c1ccc(CSc2nc3ccncc3n2Cc2ccccc2)cc1	inconclusive: 29.1 µM [rising, partial curve, poor fit]	–
CCOC(=O)C(=O)N1c2ccccc2C(N(C(=O)C(=O)OCC)c2ccccc2)CC1C (stereo not given)	–	inconclusive: -17.5%
O=C1OC(/C=C/c2ccccc2)=NC/1=C/c1ccco1	inconclusive: 23.1 µM [rising, partial curve]	–
COc1ccc(-c2coc3c(C(=O)Nc4cccc(NS(C)(=O)=O)c4)cccc23)c(C)c1	inconclusive: 29.1 µM [cytotoxic, single point]	–
CCOC(=O)C1=C2N(C)c3ccccc3N2CCC1=O	inconclusive: 16.4 µM [rising, partial curve, poor fit]	–
COc1ccccc1-n1cc(C(=O)NCC(=O)N2CCN(c3ccccc3)CC2)c2ccccc2c1=O	inconclusive: 8.2 µM [cytotoxic, partial curve]	–
CSc1nsc(SCC(=O)Nc2ccc(C(=O)O)cc2)n1	–	inactive: 7.16%
C=CCOc1c(Br)cc(/C=C2\SC(=Nc3ccccc3)NC2=O)cc1OC	–	inactive: 12%
COc1ccc(CCNc2ncnc3c2nnn3Cc2ccccc2)cc1OC	–	inactive: -9.88%
Cn1cccc1-c1cc(C(=O)N/N=C/c2ccc([N+](=O)[O-])cc2)[nH]n1	–	inactive: 25%
Cc1cccc(NC(=S)N(CCN(C)C)Cc2cccs2)c1	inconclusive: 20.6 µM [cytotoxic, single point]	–
COc1ccc(-c2cc(C(=O)Nc3cccc(O)c3)on2)cc1OC	–	inactive: 5.14%
Cc1cccc(NC(=O)CSc2nncn2-c2ccccn2)c1	inconclusive: 18.4 µM [cytotoxic, single point]	–
COc1ccc(-n2c(C)cc(/C=C3\C(=O)NN(c4ccccc4)C3=O)c2C)cc1	–	inactive: 3.47%
Cc1csc(SCC(=O)N2CCCC2)n1	inconclusive: 8.2 µM [rising, partial curve]	–
O=C1N=C(N2CCN(c3ccccc3)CC2)S/C1=C/c1cccs1	inconclusive: 29.1 µM [cytotoxic, single point]	–
Cc1nc(N)sc1C(=O)Nc1ccccc1	inconclusive: 25.9 µM [cytotoxic, partial curve, poor fit]	–
CCCC1C(c2ccccc2)C(C#N)(C#N)C2(C#N)CC1(N)NC2=O (stereo not given)	inconclusive: 18.4 µM [rising, single point]	–
COc1ccc(C(=O)Nc2ccc(C3(C#N)CCCC3)cc2)cc1	inconclusive: 3.66 µM [cytotoxic, full curve]	–
S=C(NCc1cccnc1)Nc1ccc(Oc2ccc(Cl)cc2)cc1	inconclusive: 18.4 µM [cytotoxic, single point]	–
Cc1ccccc1CN1CCC(n2nccc2NC(=O)CCCc2ccccc2)CC1	–	inactive: 11.6%
COc1cc(Cl)c(CN2CCCC(CO)(Cc3cccc(Cl)c3)C2)cc1OC (stereo not given)	inconclusive: 0.58 µM [cytotoxic, full curve, poor fit]	–

Structure (SMILES)	Potency	activity change, negative = cytotoxicity
Cc1cc2c(N=NC(=O)C3CC3c3ccccc3)c(O)[nH]c2cc1Br (stereo not given)	inconclusive: 29.1 µM [cytotoxic, single point]	–
Cc1ccccc1NC(=O)CNc1ccccc1C(=O)NCc1ccco1	inconclusive: 13 µM [cytotoxic, partial curve]	–
O=C(c1ccc(CNS(=O)(=O)c2ccc(Br)cc2)cc1)N1CCCC1	inconclusive: 18.4 µM [cytotoxic, partial curve]	–
Cc1cccc(CSCc2ccc(C(=O)NCCc3ccccc3)o2)c1	–	inactive: -3.07%
Cc1cc(Cl)ccc1C(O)c1ncc(-c2ccc(C(F)(F)F)cc2)[nH]1 (stereo not given)	–	inactive: 1.53%
O=C(O)c1ccccc1NC(=O)C1CCN(S(=O)(=O)c2cccc3nsnc23)CC1	–	inactive: 0%
COc1cccc(-c2nn(C)c3sc(C(=O)NCc4ccco4)cc23)c1	–	inactive: -29.9%
O=[N+]([O-])c1ccc(S(=O)(=O)N2CCN(c3ccc(N4CCOCC4)nn3)CC2)cc1	–	inactive: -5.89%
Cc1cc(C)c2c(CC(=O)Nc3ccc(S(=O)(=O)N4CCCCC4)cc3)coc2c1	inconclusive: 14.6 µM [cytotoxic, partial curve]	–
CCN1C(=O)C(CC(=O)Nc2ccc(OC)cc2)N(CCc2ccccc2F)C1=S (stereo not given)	–	inactive: -30%
O=C(c1cc2ccccc2oc1=O)N1CCN(c2ccc(F)cc2)CC1	–	inactive: 22.8%
CCc1ccc(NC(=O)N(CCCN2CCOCC2)C(C)c2cc3cccc(OC)c3o2)cc1 (stereo not given)	inconclusive: 0.92 µM [cytotoxic, full curve, poor fit]	–
O=C(Nc1cc([N+](=O)[O-])c2[nH]c(=O)c3ccccc3c2c1)C(F)(F)F	inconclusive: 23.1 µM [cytotoxic, single point]	–
COc1ccc(NC(=O)c2ccncc2)cc1S(=O)(=O)N1CCCCC1	inconclusive: 32.6 µM [cytotoxic, single point]	–
CCCN(CCC)S(=O)(=O)c1ccc(C(=O)Nc2cccc(-c3nc4ccccc4[nH]3)c2)cc1	inconclusive: 32.6 µM [cytotoxic, partial curve, poor fit]	–
Cc1ccc(C)c(NC(=O)c2ccc(S(=O)(=O)C(F)F)cc2)c1	–	inactive: -0.367%
CN(Cc1c(C(=O)N(C)Cc2ccccc2)nc2ccccn12)CC1Cc2ccccc2O1 (stereo not given)	inconclusive: 2.06 µM [cytotoxic, partial curve]	–
CC(C)(C)c1ccc(S(=O)(=O)NCc2ccc(C(=O)NCC3CCCO3)cc2)cc1 (stereo not given)	inconclusive: 4.61 µM [cytotoxic, partial curve, poor fit]	–
Cc1cc(C)c(C(N)=O)c(SCC(=O)c2cc(C)n(-c3cc(C)on3)c2C)n1	inconclusive: 32.6 µM [cytotoxic, single point]	–
CS(=O)(=O)n1nc(-c2ccc(Cl)cc2)nc1SCc1ccccc1	inconclusive: 35.5 µM [cytotoxic, single point]	–
COc1ccc(CC(=O)Nc2ccc(S(=O)(=O)NCC3CCCO3)cc2)cc1 (stereo not given)	inconclusive: 5.8 µM [cytotoxic, partial curve, poor fit]	–
CCCC(=O)NCc1cc(-c2nn(C)c(=O)c3ccccc23)ccc1C	inconclusive: 18.4 µM [cytotoxic, single point]	–
CN(C(=O)CSc1nnc(-c2ccco2)n1C)C1CCCCC1	–	inactive: -15.3%
Cc1ccc(C(=O)Nc2cc3c(oc2=O)CCCC3=O)cc1	inconclusive: 29.1 µM [rising, single point]	–

Structure (SMILES)	Potency	activity change, negative = cytotoxicity
Nc1c(C(=O)Nc2ccc(S(=O)(=O)N3CCCC3)cc2)sc2nc3cc4c(cc3cc12)CCC4	inconclusive: 29.1 µM [cytotoxic, single point]	–
CCN(CC)C(=O)C1=C(C)N(Cc2ccc(C(C)(C)C)cc2)C(=O)C(CC(=O)NCc2ccco2)C1 (stereo not given)	inconclusive: 13 µM [cytotoxic, partial curve]	–
COc1ccc(NC(=O)Cn2ncc(Cl)c(Cl)c2=O)cc1S(=O)(=O)N1CCOCC1	–	inactive: -2.06%
CNC(=S)N(CCc1c(C)[nH]c2ccc(OC)cc12)Cc1cccnc1	inconclusive: 20.6 µM [cytotoxic, single point]	–
CCOC(=O)CNC(=O)C1(c2ccccc2)CCCC1	inconclusive: 32.6 µM [cytotoxic, single point]	–
C[C@H](CO)N1C[C@H](C)[C@@H](CN(C)CC2CCCCC2)Oc2c(NS(=O)(=O)c3cccs3)cccc2C1=O	inconclusive: 29.1 µM [rising, single point]	–
CCOc1ccc(-n2c(C)nnc2SCC(=O)N(CC)CC)cc1	active: 16.4 µM	–
N#Cc1c(-n2ncnc2-c2ccccc2C(F)(F)F)sc2c1CCCCC2	–	inactive: -0.641%
CCCN(CCC)C(=O)CSc1nc2n[nH]c(C)c2c(=N)n1-c1ccc(OC)cc1	inconclusive: 23.1 µM [cytotoxic, partial curve, poor fit]	–
CCOC(=O)c1ccc(Nc2c(-c3cccc(O)c3)nc3nc[nH]n23)cc1	–	inactive: -9.11%
O=C(Nc1c(-c2ccccc2)[nH][nH]c1=O)c1cccc(C(F)(F)F)c1	–	inactive: -11.8%
CCOC(=O)Cc1csc(SCC(=O)Nc2cc(Cl)ccc2Oc2ccccc2)n1	inconclusive: 23.1 µM [cytotoxic, single point]	–
COCc1c(C(=O)N2CCN(c3ncccn3)CC2)oc2ccccc12	–	inactive: 15.1%
COc1ccccc1NC(=O)Cn1nc(-c2ccc(C)cc2)c2c(c1=O)CCCC2	inconclusive: 3.66 µM [cytotoxic, partial curve, poor fit]	–
O=C(Nc1ccc(Br)cc1)C(Cc1ccccc1)NS(=O)(=O)c1cccc2nsnc12 (stereo not given)	–	inactive: 14%
CCCCC(=O)N1CCCC(c2nc3c(nnn3Cc3cc(C)ccc3C)c(=O)[nH]2)C1 (stereo not given)	inconclusive: 29.1 µM [cytotoxic, single point]	–
Cn1cccc1C(=O)N1CCc2ccccc2C1	inconclusive: 0.0065 µM [rising, full curve, poor fit]	–
CC1CCC(NC(=O)C2c3ccccc3C(=O)N2Cc2cccs2)CC1 (stereo not given)	active: 3.66 µM	–
O=C(N/N=C/c1ccoc1)c1cc(Br)ccc1O	inconclusive: 20.6 µM [rising, partial curve, poor fit]	–
O=C(CN1C(=O)CCSc2ccccc21)Nc1ccccc1	–	inactive: 0.935%
COc1ccc(C(=O)Nc2cc(S(=O)(=O)c3ccc(Cl)cc3)c(O)c(C)c2C)cc1	–	inactive: 0%
Cc1ccc(Cc2nnc3n(-c4cccc(C)c4)nc(C(=O)c4ccccc4)n3c2=O)cc1	inconclusive: 22.4 µM [cytotoxic, partial curve, poor fit]	–

3 compounds out of the list, sorted by length of the SMILES, low to high.
Structure (SMILES)	Potency	activity change, negative = cytotoxicity
Cn1cccc1C(=O)N1CCc2ccccc2C1	inconclusive: 0.0065 µM [rising, full curve, poor fit]	–
CCCCC(=O)N1CCCC(c2nc3c(nnn3Cc3cc(C)ccc3C)c(=O)[nH]2)C1 (stereo not given)	inconclusive: 29.1 µM [cytotoxic, single point]	–
Nc1c(C(=O)Nc2ccc(S(=O)(=O)N3CCCC3)cc2)sc2nc3cc4c(cc3cc12)CCC4	inconclusive: 29.1 µM [cytotoxic, single point]	–
